Measured values from article PMC7862700.
Some of the results follow. Construct or isoform of the protein are uncertain.

Target: T1, ETS1 (UniProt P14921)
T1 sequence: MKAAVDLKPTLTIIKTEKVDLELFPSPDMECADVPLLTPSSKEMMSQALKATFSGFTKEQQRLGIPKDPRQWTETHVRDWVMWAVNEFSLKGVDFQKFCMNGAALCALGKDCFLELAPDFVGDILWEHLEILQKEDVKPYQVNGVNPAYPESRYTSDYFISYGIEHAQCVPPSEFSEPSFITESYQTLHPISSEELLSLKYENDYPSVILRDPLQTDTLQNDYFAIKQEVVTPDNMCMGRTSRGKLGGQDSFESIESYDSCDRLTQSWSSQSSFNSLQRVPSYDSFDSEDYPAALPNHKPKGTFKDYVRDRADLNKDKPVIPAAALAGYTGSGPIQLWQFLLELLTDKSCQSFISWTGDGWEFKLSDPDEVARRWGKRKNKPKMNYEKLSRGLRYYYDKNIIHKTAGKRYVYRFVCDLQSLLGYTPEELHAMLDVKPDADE
Assay: DAPPL (digital affinity profiling via proximity ligation, sequencing)
Conditions: 10 mM Tris-HCl pH 7.5, 50 mM NaCl, 1 mM DTT, 4% glycerol, room temperature, 30 min; GST-TFs on glutathione beads, 16-mer random dsDNA library, 0.1% …; high values mean tight binding; double strand, one strand shown; scale: fold enrichment (6-mer frequency, TF over GST control)

| Sequence | binding signal |
| --- | --- |
| TATCCT | 1.75 |
| AAATTC | 1.31 |
| TATCTC | 1.27 |
| CTGACT | 1.41 |
| ATCCCT | 1.25 |
| TATTGG | 1.18 |
| TTAATT | 1.43 |
| TTGTCC | 1.46 |
| CGGCTA | 1.14 |
| AATGCC | 1.15 |
| TGCACG | 1.13 |
| AACCTT | 1.24 |
| GAAGCT | 1.58 |
| ATCCGC | 1.83 |
| CTCTTC | 1.75 |
| CGATTA | 1.16 |
| CTCTAA | 1.45 |
| CACAAT | 1.11 |
| ACCACC | 1.03 |
| GGCTCC | 1.37 |

3 entries from above, tab-delimited.
Sequence	binding signal
TATCCT	1.75
AACCTT	1.24
GAAGCT	1.58

Additional entries follow:

| Sequence | binding signal |
| --- | --- |
| TTGTGG | 1.38 |
| CACACT | 1.22 |
| TAGTAA | 1.1 |
| TAAAGA | 1.06 |
| TACGCT | 1.28 |
| CAATAT | 1.21 |
| ATCATC | 1.13 |
| AAATGA | 1.31 |
| GCTGAT | 1.08 |
| TTAACC | 1.31 |
| CTGCTA | 1.42 |
| ATGTCC | 1.54 |
| ATTACG | 1.08 |
| ATTGCG | 1.19 |
| GCTATT | 1.3 |
| TCCTCA | 1.59 |
| CAAGGT | 1.06 |
| TCTTAA | 1.26 |
| TCTTTA | 1.26 |
